According to US10041115B2, “3′-OH unblocked, fast photocleavable terminating nucleotides and methods for nucleic acid sequencing” (LASERGEN, INC., priority 2011, dated 2018):
“Also recorded” adds a separate entry of the source. Some entries repeat one wording, which the source may state once for all of them.

Test: Photochemical cleavage assays of incorporated nucleotide analogs (365 nm UV light, DT50)
Type: physicochemical
Settings: for transient products following brief exposure to UV light: incorporation assays, gel electrophoresis, 1 mM NaN3, no DTT
Procedure: As used herein, the term “DT50” refers to the amount of time required to cleavage 50% of the base analog incorporated in the primer-template complex.
To compare the rates of photochemical cleavage between the nucleotide analogs described here, a protocol was developed to deliver a daily light intensity output of 0.70±0.01 W/cm^2 to samples, see below.
The power supply was turned on for about 30 min prior to that of the lamp and recirculation bath as described by the manufacturer. The IR liquid filter was cooled to 9° C. Light intensity was determined using a model PM100 power meter (Thorlabs), a 1000 μm pinhole (Edmund Optics), a modified 0.5 mL Eppendorf tube cut in half, and a 3-axis manual translation stage (Newport), see FIG. 5. The half cut Eppendorf tube was positioned in front of the pinhole and power meter detector head to account for the geometric shape distortion of the light as it passes through a reaction solution. The translation stage was then used to align the tube/pinhole/detector device with the highest intensity from the arc beam.
To stabilize its output, the lamp was left on for one hour prior to intensity measurements. Thereafter, the measured power was adjusted by increasing the current from the power supply. In order to achieve intensity (I) of 0.70 W/cm^2, the measured power (P) was adjusted to ˜5.5 mW, according to the equation:
[formula] where r is the radius of pinhole.
The beam was then focused by placing an 0.5 mL Eppendorf tube into the sample holder, the tube of which was modified with an internal alignment card to provide reference lines for volume heights of 10 μL and 20 μL, see FIG. 5. The reference lines enabled the beam to be centered for a given reaction volume. Beam alignment was further verified by observing the mercury arc image of the lamp produced by the rear reflector. A second alignment card was placed into the rotating sample holder to view the image, which when properly aligned using the reflector would produce an inverted arc image on the arc gap itself. This step ensured that arc hotspots were not superimposed, which could cause overheating while maintaining a power output of ˜5.5 mW. The speed of the rotating sample holder was adjusted within a range of 1,200-1,350 rpm using a Nova-Strobe DA Plus stroboscope (Monarch Instrument) by adjusting the motor's torque with an adjustment screw.
Photochemical cleavage assays: Nucleotide analogs were incorporated using 10 μL reactions, as described for the PEP assays, at a final concentration of 100 nM. […] OligoTemplate-2, oligoTemplate-5, and oligoTemplate-4 each hybridized with BODIPY-FL labeled primer-1 were used for C^7-HOMedA, C^7-HOMedG, and HOMedU analogs, respectively. OligoTemplate-8 hybridized with BODIPY-FL labeled primer-3 was used to assay HOMedC analogs. Incorporated reactions were quenched with either 1 mM sodium azide solution; 1 mM sodium azide, 50 mM DTT solution; or reagents C-G (see key in FIG. 4), exposed to 365 nm ultraviolet (UV) light for various time points using our UV deprotector, and then placed on ice.

SMILES: COc1ccc([N+](=O)[O-])c([C@@H](OCc2cn([C@H]3C[C@H](O)[C@@H](COP(=O)(O)OP(=O)(O)OP(=O)(O)O)O3)c(=O)[nH]c2=O)C(C)(C)C)c1 [dU.VI, 5-[(S)-1-(5-Methoxy-2-nitrophenyl)-2,2-dimethyl-propyloxy]methyl-2′-deoxyuridine-5′-triphosphate]
- transient product (TP) in the presence of DTT (incorporated by Therminator polymerase, 0.70 W/cm^2 365 nm light, DTT added): Elimination of Transient Product (TP) with DTT; also recorded: DTT Eliminates the Nitroso Intermediate (TP)
- transient products following brief exposure to UV light: transient products were observed

SMILES: COc1ccc([N+](=O)[O-])c([C@@H](OCc2cn([C@H]3C[C@H](O)[C@@H](COP(=O)(O)OP(=O)(O)OP(=O)(O)O)O3)c(=O)nc2N)C(C)(C)C)c1 [dC.VI, 5-[(S)-1-(5-methoxy-2-nitrophenyl)-2,2-dimethyl-propyloxy]methyl-2′-deoxycytidine-5′-triphosphate]
- transient products following brief exposure to UV light: transient products were observed

SMILES: COc1ccc([N+](=O)[O-])c([C@@H](OCc2cn([C@H]3C[C@H](O)[C@@H](COP(=O)(O)OP(=O)(O)OP(=O)(O)O)O3)c3ncnc(N)c23)C(C)(C)C)c1 [dA.VI, 7-[(S)-1-(5-methoxy-2-nitrophenyl)-2,2-dimethyl-propyloxy]methyl-7-deaza-2′-deoxyadenosine-5′-triphosphate]
- transient products following brief exposure to UV light: transient products were observed

SMILES: COc1ccc([N+](=O)[O-])c([C@@H](OCc2cn([C@H]3C[C@H](O)[C@@H](COP(=O)(O)OP(=O)(O)OP(=O)(O)O)O3)c3nc(N)[nH]c(=O)c23)C(C)(C)C)c1 [dG.VI, 7-[(S)-1-(5-methoxy-2-nitrophenyl)-2,2-dimethyl-propyloxy]methyl-7-deaza-2′-deoxyguanosine-5′-triphosphate]
- transient products following brief exposure to UV light: but not
